The list shows only some results of the screen, not a fair sample: it gathers tests that were run many times, whatever their T/C, doses with no T/C, and many T/C values between a quarter and a half above the control. Further doses and runs are listed elsewhere. T/C: endpoint of the treated group in % of that of the vehicle group. Some doses have a count of surviving animals in place of a T/C: the source holds a T/C of zero for them, seemingly a mark for toxic or unscored doses. Some survivor counts are full or nearly so, which does not show that the dose was tolerated: survival well below the control is almost never listed, so the zero probably covers shortened survival too. Survivors were counted at the toxicity check, usually on the fifth day, unless a day is given; later deaths do not show. Schedule codes are those of the source, taken here to give the interval after Q, in days (D) or hours (H), and the number of doses after X. Some entries hold several experiments; the results are listed from low to high. For survival time, the PubChem record calls one and a half times the control and up active, and a quarter to a half above the control has no call in these data; cut-offs in other NCI protocols can differ. Some T/C values carry the count of animals alive at the toxicity check (mostly the fifth day); without a count, all were alive then. Brackets with × stand for listed records that agree. Some schedules carry Z or #; the key to these is not given.
Test system: C57BL/6 mice, intracerebral ependymoblastoma, median survival T/C
Experiment: NCI In Vivo Anticancer Drug Screen. Data for tumor model Ependymoblastoma (intracerebral) in C57BL/6 mice
Conditions: T/C endpoint: median survival time, higher T/C = longer survival
Method: The antitumor activity of compounds was measured in mice bearing transplantable tumors. Survival or tumor size were measured and the results are expressed as the measurement made in the treated group (T) divided by the measurement made in the vehicle treated control group (C). The tumor model used in this assay is Ependymoblastoma (intracerebral) in C57BL/6 mice

[1] = dose: 4.0 mg/kg/injection, schedule: Q01DX005 (ip), vehicle: alcohol
[2] = dose: 32.0 mg/kg/injection, schedule: Q01DX001 (ip), vehicle: saline
[3] = dose: 32.0 mg/kg/injection, schedule: Q01DX001 (oral), vehicle: saline
[4] = dose: 40.0 mg/kg/injection, schedule: Q01DX001 (ip), vehicle: saline with Tween-80
[5] = dose: 64.0 mg/kg/injection, schedule: Q01DX001 (ip), vehicle: saline
[6] = dose: 64.0 mg/kg/injection, schedule: Q01DX001 (oral), vehicle: saline
[7] = dose: 80.0 mg/kg/injection, schedule: Q01DX001 (ip), vehicle: saline with Tween-80
[8] = dose: 128.0 mg/kg/injection, schedule: Q01DX001 (oral), vehicle: saline

Structure (SMILES): O=NN(CCCl)C(=O)NCCCl
- T/C (dose: 0.25 mg/kg/injection, schedule: Q03HX032 (ip), vehicle: saline): 125 % of control
- T/C (dose: 0.5 mg/kg/injection, schedule: Q03HX008 (ip), vehicle: saline): 136 % of control
- T/C (dose: 0.5 mg/kg/injection, schedule: Q03HX032 (ip), vehicle: saline): 132 % of control
- T/C (dose: 1.0 mg/kg/injection, schedule: Q03HX032 (ip), vehicle: saline): 134 and 147 % of control
- T/C (dose: 2.0 mg/kg/injection, schedule: Q01DX005 (ip), vehicle: Klucel (hydroxypropylcellulose) (HPC)): 101, 106 [9 of 10 alive], 108, 110 (2×), 115, 119, 142, 177 % of control
- T/C (dose: 2.0 mg/kg/injection, schedule: Q01DX005 (ip), vehicle: saline + alcohol): 95, 102, 103, 118 % of control (2×)
- T/C (dose: 2.5 mg/kg/injection, schedule: Q01DX001 (ip), vehicle: saline with Tween-80): 89 [1 of 10 alive], 94 [3 of 10 alive], 101 [5 of 10 alive], 108, 112, 113, 114, 118, 123 % of control
- T/C (dose: 4.0 mg/kg/injection, schedule: Q01DX001 (ip), vehicle: saline): 106, 108, 110 [survivors not given], 113, 115 [survivors not given], 117, 119, 121 [survivors not given], 125 [survivors not given], 126 % of control
- T/C (dose: 4.0 mg/kg/injection, schedule: Q01DX005 (ip), vehicle: Klucel (hydroxypropylcellulose) (HPC)): 111 (2×), 113, 128 [9 of 10 alive], 132 [9 of 10 alive], 135 [9 of 10 alive], 140, 142, 157 % of control
- T/C [1]: 134 % of control
- survivor count [1]: 10 of 10
- T/C (dose: 4.0 mg/kg/injection, schedule: Q01DX005 (ip), vehicle: saline + alcohol): 111, 126, 140, 144, 147 % of control
- T/C (dose: 4.0 mg/kg/injection, schedule: Q01DX005 (ip), vehicle: saline with Tween-80): 127 % of control [8 of 10 alive]
- T/C (dose: 4.0 mg/kg/injection, schedule: Q## X006 (ip), vehicle: saline with Tween-80): 145 % of control
- T/C (dose: 5.0 mg/kg/injection, schedule: Q01DX001 (ip), vehicle: saline with Tween-80): 89 [1 of 10 alive], 94 [4 of 10 alive], 110 [6 of 10 alive], 112, 113, 119, 124, 132, 143 % of control
- T/C (dose: 7.5 mg/kg/injection, schedule: Q01DX001 (ip), vehicle: saline with Tween-80): 134 % of control [5 of 6 alive]
- T/C (dose: 8.0 mg/kg/injection, schedule: Q01DX001 (ip), vehicle: saline): 93, 103 [survivors not given], 113 [survivors not given], 114, 121 [survivors not given], 127, 131 [survivors not given], 140 (2×), 146 % of control
- T/C (dose: 8.0 mg/kg/injection, schedule: Q## X006 (ip), vehicle: saline with Tween-80): 125 % of control
- T/C (dose: 10.0 mg/kg/injection, schedule: Q01DX001 (ip), vehicle: saline with Tween-80): 94 [3 of 10 alive], 98 [3 of 10 alive], 100 [4 of 10 alive], 103 [5 of 10 alive], 126, 132, 133 [9 of 10 alive], 134, 147, 162 % of control
- T/C (dose: 10.0 mg/kg/injection, schedule: Q01DX001 (oral), vehicle: saline with Tween-80): 143 % of control [9 of 10 alive]
- T/C (dose: 16.0 mg/kg/injection, schedule: Q01DX001 (ip), vehicle: saline): 109 [survivors not given], 139 [9 of 10 alive], 142, 147 [survivors not given], 165, 173, 178 [survivors not given], 184, 192 [survivors not given], 203 % of control
- T/C (dose: 16.0 mg/kg/injection, schedule: Q01DX001 (oral), vehicle: saline): 106 [7 of 10 alive], 116, 142, 176 % of control
- T/C (dose: 16.0 mg/kg/injection, schedule: Q04DX004 (ip), vehicle: saline): 135 [9 of 10 alive] and 142 % of control
- T/C (dose: 20.0 mg/kg/injection, schedule: Q01DX001 (ip), vehicle: saline with Tween-80): 94 [3 of 10 alive] (2×), 104 [5 of 10 alive], 124, 159, 189 [6 of 10 alive], 194, 214, 236, 239 % of control
- survivor count (dose: 32.0 mg/kg/injection, schedule: Q01DX001 (ip), vehicle: saline with Tween-80): 2 of 10
- T/C [2]: 105 [survivors not given], 117 [survivors not given], 120, 169 [survivors not given], 189 [survivors not given], 244, 267 % of control
- survivor count [2]: 4 of 10, 6 of 10, 10 of 10
- T/C [3]: 125, 169, 196 % of control
- survivor count [3]: 3 of 10
- T/C (dose: 32.0 mg/kg/injection, schedule: Q04DX004 (ip), vehicle: saline): 136 % of control
- T/C [4]: 87, 93 [2 of 10 alive], 97 [3 of 10 alive], 101 [4 of 10 alive], 133 % of control [9 of 10 alive]
- survivor count [4]: 5 of 10, 9 of 10, 10 of 10
- survivor count (dose: 60.0 mg/kg/injection, schedule: Q01DX001 (ip), vehicle: saline with Tween-80): 3 of 6
- survivor count (dose: 64.0 mg/kg/injection, schedule: Q01DX001 (ip), vehicle: other): 9 of 10
- T/C [5]: 89 [survivors not given], 98 [survivors not given], 99 [survivors not given], 111 % of control [survivors not given]
- survivor count [5]: 0 of 10, 1 of 10, 2 of 10, 10 of 10
- T/C [6]: 131 [9 of 10 alive] and 255 % of control
- survivor count [6]: 1 of 10 and 2 of 10
- survivor count (dose: 64.0 mg/kg/injection, schedule: Q04DX004 (ip), vehicle: saline): 10 of 10
- survivor count (dose: 64.0 mg/kg/injection, schedule: Q08DX002 (ip), vehicle: saline): 10 of 10
- T/C [7]: 92 [2 of 10 alive] and 98 % of control [2 of 10 alive]
- survivor count [7]: 2 of 10, 4 of 10, 5 of 10, 9 of 10
- T/C [8]: 185 % of control [9 of 10 alive]
- survivor count [8]: 0 of 10, 1 of 10, 9 of 10
- survivor count (dose: 128.0 mg/kg/injection, schedule: Q04DX004 (ip), vehicle: saline): 10 of 10
- survivor count (dose: 128.0 mg/kg/injection, schedule: Q08DX002 (ip), vehicle: saline): 9 of 10 and 10 of 10
- survivor count (dose: 256.0 mg/kg/injection, schedule: Q01DX001 (oral), vehicle: saline): 0 of 10, 1 of 10, 9 of 10, 10 of 10
- survivor count (dose: 256.0 mg/kg/injection, schedule: Q04DX004 (ip), vehicle: saline): 8 of 10 and 9 of 10
- survivor count (dose: 512.0 mg/kg/injection, schedule: Q01DX001 (oral), vehicle: saline with Tween-80): 0 of 10

Structure (SMILES): CS(C)=O
- survivor count (dose: 3.0 grams/kg/injection, schedule: Q01DX005 (ip), vehicle: saline): 10 of 10
